Data as given in patent US6605754B1, “DNA constructs and plants incorporating them” (priority 1992, dated 2003).
At least one compound was matched to its structure with a doubt left.

Tested on: alcA:35S chimeric promoter (CAT reporter gene expression)
Assay: CAT assays in A nidulans deletion strain alc500 co-transformed with alcR regulator and alcA reporter constructs
Format: cell-based, Aspergillus nidulans
Details: 4 hours in the presence of EMK, alc500 with alcR + alcA-CAT constructs

SMILES: CCC(C)=O [EMK, butan-2-one (ethyl methyl ketone)]
- μg CAT/mg protein (carbon source fructose): 5.67/4.58 μg CAT/mg protein
- μg CAT/mg protein (carbon source glucose): 0.01/0.00 μg CAT/mg protein
